According to publication PMC6992696, “Supramolecular tholos-like architecture constituted by archaeal proteins without functional annotation” (Scientific Reports, 2020):

Key:
[1] = molecular target: PbaA_(CΔ30), mutant PbaA with deletion of 30 C-terminal amino acid residues (Pyrococcus furiosus); assay: HS-AFM; purified complexes, side views on bare mica, tapping mode, room temperature, 50 mM Tris-HCl pH 8.0, 150 mM NaCl; both purified
[2] = molecular target: PbaA_(CΔ30), mutant PbaA with deletion of 30 C-terminal amino acid residues (Pyrococcus furiosus); assay: cryo-EM structure; purified PbaA_(CΔ30)/PF0014 complex; map EMD-0755 at 7.3 Å with D5 symmetry and 8.5 Å with C1 symmetry; both purified
[3] = molecular target: PbaA_(CΔ30), mutant PbaA with deletion of 30 C-terminal amino acid residues (Pyrococcus furiosus); assay: SEC; 400 μM monomer of each protein mixed 1:1, dialyzed 12 h against 50 mM Tris-HCl pH 8.0, 200 mM NaCl, 2 mM DTT; HiTrapQ HP and HiLoad Superdex 200; both purified
[4] = molecular target: PbaB from Pyrococcus furiosus (Pyrococcus furiosus); assay: as above

B1: PF0014 from Pyrococcus furiosus (natural protein, UniProt Q8U4R0 1-128, looked up)
chain: MVVEIPLLSGIARRTLDALMRNPIRTVEIRNARNYMTLEKVKEGDLVFLTYESLEDVMRGTEGIIAMVTRMEKSHQRVPWEESDEREISICRVQLKLVGLGRVVEVQEKNGVVFVKVREMLHHEISMG
notes: PF0014, Pyrococcus furiosus, an archaeal protein without functional annotation; Monomeric by HS-AFM when isolated; ten copies in the complex with PbaA
- binding [1]: binds
- binding [2]: binds
- binding [3]: binds
- binding [4]: no binding (tested: 400 μM monomer of each)

These are yes or no findings as the source states them, for the method shown. For some of these results: Binding calls can cover weak binding; strength is not graded here.
